Measurements from the supplement of paper PMC10849652.
Some of the results follow.

Protein sequences, listed by entry. Tags and fused reporters are not part of them. Lines headed by an entry give the natural chain unless they say otherwise; changes in a name come on top.
UniProt P57737: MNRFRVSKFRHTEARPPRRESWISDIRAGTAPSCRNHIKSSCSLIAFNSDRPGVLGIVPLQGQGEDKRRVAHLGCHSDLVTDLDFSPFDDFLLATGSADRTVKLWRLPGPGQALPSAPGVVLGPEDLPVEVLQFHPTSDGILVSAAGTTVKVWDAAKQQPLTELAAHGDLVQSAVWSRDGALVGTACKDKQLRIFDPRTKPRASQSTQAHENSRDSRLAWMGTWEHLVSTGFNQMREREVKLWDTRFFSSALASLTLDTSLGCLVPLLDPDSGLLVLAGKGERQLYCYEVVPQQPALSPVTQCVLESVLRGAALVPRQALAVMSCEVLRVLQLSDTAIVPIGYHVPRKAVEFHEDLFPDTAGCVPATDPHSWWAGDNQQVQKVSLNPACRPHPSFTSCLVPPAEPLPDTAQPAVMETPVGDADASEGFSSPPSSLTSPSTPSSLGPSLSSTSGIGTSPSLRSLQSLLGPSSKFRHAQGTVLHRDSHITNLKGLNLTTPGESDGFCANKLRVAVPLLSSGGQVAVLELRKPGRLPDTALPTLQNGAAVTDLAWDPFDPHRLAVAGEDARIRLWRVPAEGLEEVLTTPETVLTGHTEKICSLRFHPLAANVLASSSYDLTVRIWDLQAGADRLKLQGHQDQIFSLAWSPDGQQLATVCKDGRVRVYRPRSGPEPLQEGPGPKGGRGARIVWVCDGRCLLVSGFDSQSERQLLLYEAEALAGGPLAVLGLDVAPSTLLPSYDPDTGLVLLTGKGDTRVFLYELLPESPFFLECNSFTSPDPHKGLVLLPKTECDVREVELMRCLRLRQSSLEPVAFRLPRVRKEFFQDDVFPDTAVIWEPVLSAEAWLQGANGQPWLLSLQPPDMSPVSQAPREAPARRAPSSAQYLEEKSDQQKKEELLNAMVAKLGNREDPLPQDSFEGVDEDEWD
UniProt Q6P4Q7: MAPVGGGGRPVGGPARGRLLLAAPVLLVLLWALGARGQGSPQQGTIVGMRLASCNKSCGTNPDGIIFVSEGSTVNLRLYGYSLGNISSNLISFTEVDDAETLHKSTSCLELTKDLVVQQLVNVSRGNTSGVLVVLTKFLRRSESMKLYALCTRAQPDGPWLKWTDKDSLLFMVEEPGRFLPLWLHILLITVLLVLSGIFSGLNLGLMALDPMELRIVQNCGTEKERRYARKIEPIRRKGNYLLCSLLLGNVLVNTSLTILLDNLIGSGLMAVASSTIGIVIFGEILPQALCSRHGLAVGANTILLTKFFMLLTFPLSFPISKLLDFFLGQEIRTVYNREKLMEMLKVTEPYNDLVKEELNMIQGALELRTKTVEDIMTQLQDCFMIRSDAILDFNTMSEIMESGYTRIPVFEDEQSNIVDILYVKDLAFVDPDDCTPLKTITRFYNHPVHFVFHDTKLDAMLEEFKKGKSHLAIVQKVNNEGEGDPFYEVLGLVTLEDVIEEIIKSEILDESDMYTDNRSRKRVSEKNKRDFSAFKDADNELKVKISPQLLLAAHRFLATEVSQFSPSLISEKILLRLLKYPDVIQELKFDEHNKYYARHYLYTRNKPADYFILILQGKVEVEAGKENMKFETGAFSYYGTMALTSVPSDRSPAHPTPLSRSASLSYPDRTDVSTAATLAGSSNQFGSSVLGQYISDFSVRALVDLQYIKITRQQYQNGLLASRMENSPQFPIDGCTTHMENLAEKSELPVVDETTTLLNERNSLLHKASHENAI
UniProt Q9GZY4: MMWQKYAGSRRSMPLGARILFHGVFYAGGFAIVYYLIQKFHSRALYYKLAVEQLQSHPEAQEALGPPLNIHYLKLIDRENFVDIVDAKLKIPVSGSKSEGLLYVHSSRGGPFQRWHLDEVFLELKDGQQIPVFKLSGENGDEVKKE
UniProt P31146: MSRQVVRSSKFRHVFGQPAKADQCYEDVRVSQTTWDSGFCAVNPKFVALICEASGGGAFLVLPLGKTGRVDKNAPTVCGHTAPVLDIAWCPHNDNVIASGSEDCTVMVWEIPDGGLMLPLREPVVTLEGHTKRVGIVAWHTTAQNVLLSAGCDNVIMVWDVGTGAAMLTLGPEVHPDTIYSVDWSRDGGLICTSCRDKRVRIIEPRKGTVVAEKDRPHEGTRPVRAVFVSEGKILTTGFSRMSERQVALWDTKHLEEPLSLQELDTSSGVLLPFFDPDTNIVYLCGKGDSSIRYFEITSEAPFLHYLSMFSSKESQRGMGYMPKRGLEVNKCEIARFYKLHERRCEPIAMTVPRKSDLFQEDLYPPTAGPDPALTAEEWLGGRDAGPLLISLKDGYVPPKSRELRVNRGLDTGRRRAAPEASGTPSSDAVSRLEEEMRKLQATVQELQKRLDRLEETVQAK
UniProt Q5RI15: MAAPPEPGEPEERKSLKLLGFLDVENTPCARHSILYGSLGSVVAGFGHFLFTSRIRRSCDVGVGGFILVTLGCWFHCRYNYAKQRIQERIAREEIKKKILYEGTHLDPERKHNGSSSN
UniProt P14406, whole entry, looked up: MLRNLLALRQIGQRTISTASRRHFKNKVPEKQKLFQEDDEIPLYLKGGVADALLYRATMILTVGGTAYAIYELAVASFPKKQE

Legend:
Experiment in all cases: log2 fold change, soluble protein after heating vs DMSO (PISA); higher = thermal stabilisation; K562 lysate, 10 uM; active = over 0.2 and 3.5 SD of the protein, either way, in both replicates (recomputed)
alvocidib = compound: CN1CC[C@H](c2c(O)cc(O)c3c(=O)cc(-c4ccccc4Cl)oc23)[C@H](O)C1 [alvocidib]
Method in brief: (§1)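 Dounce homogenisation of K562 pellets in PBS pH 7.4 with 1 mM MgCl2 produced a crude extract, used at 1 mg/mL protein. Exposure to 10 μM compound lasted 30 min, and aliquots were then heated for 3 min across 48°C-58°C, pooled and brought to 0.5% NP-40 at 4°C. The supernatant after 21,000xg for 90 min was quantified by TMTpro 16plex LC-MS/MS with channel sums equalised. Duplicate values are given as log-two fold change in thermal stability relative to solvent controls.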

Tubastatin A = compound: CN1CCc2c(c3ccccc3n2Cc2ccc(C(=O)NO)cc2)C1 [Tubastatin A]
Method in brief: as §1

[1] = compound: CNC(=O)C1=CC=CC=C1NC2=NC(=NC=C2Cl)NC3=C(C=C(C=C3)N4CCOCC4)OC
Method in brief: as §1

defactinib = compound: CNC(=O)c1ccc(Nc2ncc(C(F)(F)F)c(NCc3nccnc3N(C)S(C)(=O)=O)n2)cc1 [defactinib]
Method in brief: as §1

[2] = compound: CNc1nc(-c2ccc3c(N)n[nH]c3c2)cc(N2C[C@@H](C(=O)NC3CCCCC3)CC[C@H]2C)n1
Method in brief: as §1

encorafenib = compound: COC(=O)N[C@@H](C)CNc1nccc(-c2cn(C(C)C)nc2-c2cc(Cl)cc(NS(C)(=O)=O)c2F)n1 [encorafenib]
Method in brief: as §1

[3] = compound: COC(=O)[C@H](CCSC)NC(=O)C1=C(C=C(C=C1)NC[C@H](CS)N)C2=CC=CC=C2
Method in brief: as §1

alisertib = compound: COc1cc(Nc2ncc3c(n2)-c2ccc(Cl)cc2C(c2c(F)cccc2OC)=NC3)ccc1C(=O)O [alisertib]
Method in brief: as §1

gefitinib = compound: COc1cc2ncnc(Nc3ccc(F)c(Cl)c3)c2cc1OCCCN1CCOCC1 [gefitinib]
Method in brief: as §1

crizotinib = compound: C[C@@H](Oc1cc(-c2cnn(C3CCNCC3)c2)cnc1N)c1c(Cl)ccc(F)c1Cl [crizotinib]
Method in brief: as §1

[4] = compound: C[C@H](C1=CC=C(C=C1)C(=O)NC2=C3C=CNC3=NC=C2)N
Method in brief: as §1

duvelisib = compound: C[C@H](Nc1ncnc2nc[nH]c12)c1cc2cccc(Cl)c2c(=O)n1-c1ccccc1 [duvelisib]
Method in brief: as §1

gandotinib = compound: Cc1cc(Nc2cc(CN3CCOCC3)c3nc(C)c(Cc4ccc(Cl)cc4F)n3n2)n[nH]1 [gandotinib]
Method in brief: as §1

tozasertib = compound: Cc1cc(Nc2cc(N3CCN(C)CC3)nc(Sc3ccc(NC(=O)C4CC4)cc3)n2)n[nH]1 [tozasertib]
Method in brief: as §1

doramapimod = compound: Cc1ccc(-n2nc(C(C)(C)C)cc2NC(=O)Nc2ccc(OCCN3CCOCC3)c3ccccc23)cc1 [doramapimod]
Method in brief: as §1

[5] = compound: Cc1cccc(CC(=O)N2CCc3c2ccc(-c2cn(C)c4ncnc(N)c24)c3F)n1
Method in brief: as §1

[6] = compound: COc1cc2nc(-c3cc(F)ccc3O)nc(N[C@@H]3CNC[C@H]3C(C)(C)O)c2cc1OC
Method in brief: as §1

lapatinib = compound: CS(=O)(=O)CCNCc1ccc(-c2ccc3ncnc(Nc4ccc(OCc5cccc(F)c5)c(Cl)c4)c3c2)o1 [lapatinib]
Method in brief: as §1

pictilisib = compound: CS(=O)(=O)N1CCN(Cc2cc3nc(-c4cccc5[nH]ncc45)nc(N4CCOCC4)c3s2)CC1 [pictilisib]
Method in brief: as §1

bafetinib = compound: Cc1ccc(NC(=O)c2ccc(CN3CC[C@H](N(C)C)C3)c(C(F)(F)F)c2)cc1Nc1nccc(-c2cncnc2)n1 [bafetinib]
Method in brief: as §1

Target: CORO7 (UniProt P57737)
- log2 fold change (alvocidib): inactive: 0.001
- log2 fold change (Tubastatin A): inactive: 0.011
- log2 fold change [1]: inactive: -0.092
- log2 fold change (defactinib): inactive: 0.191
- log2 fold change [2]: inactive: -0.05
- log2 fold change (encorafenib): inactive: -0.081
- log2 fold change [3]: inactive: 0.061
- log2 fold change (alisertib): inactive: 0.259
- log2 fold change (gefitinib): inactive: -0.062
- log2 fold change (crizotinib): inactive: -0.004
- log2 fold change [4]: inactive: -0.139
- log2 fold change (duvelisib): inactive: -0.084
- log2 fold change (gandotinib): inactive: 0
- log2 fold change (tozasertib): inactive: 0.092
- log2 fold change (doramapimod): inactive: 0.016
- log2 fold change [5]: inactive: -0.335

Target: CNNM4 (UniProt Q6P4Q7)
- log2 fold change (alvocidib): inactive: 0.064
- log2 fold change (Tubastatin A): inactive: 0.013
- log2 fold change [1]: inactive: 0.043
- log2 fold change (defactinib): inactive: -0.018
- log2 fold change [2]: inactive: 0.029
- log2 fold change (encorafenib): inactive: 0.023
- log2 fold change [3]: inactive: -0.047
- log2 fold change (alisertib): inactive: 0.029
- log2 fold change [6]: inactive: -0.158
- log2 fold change (gefitinib): inactive: 0.181
- log2 fold change (lapatinib): inactive: 0.071
- log2 fold change (pictilisib): inactive: -0.045
- log2 fold change (crizotinib): inactive: 0.024
- log2 fold change [4]: inactive: -0.107
- log2 fold change (duvelisib): inactive: 0.04
- log2 fold change (gandotinib): inactive: -0.218
- log2 fold change (tozasertib): inactive: 0.1
- log2 fold change (doramapimod): inactive: 0.007
- log2 fold change (bafetinib): inactive: -0.095
- log2 fold change [5]: inactive: -0.064

Target: COA1 (UniProt Q9GZY4)
- log2 fold change (alvocidib): inactive: 0.037
- log2 fold change (Tubastatin A): inactive: 0.031
- log2 fold change [1]: inactive: -0.016
- log2 fold change (defactinib): inactive: -0.051
- log2 fold change [2]: inactive: 0.081
- log2 fold change (encorafenib): inactive: 0.007
- log2 fold change [3]: inactive: -0.001
- log2 fold change (alisertib): inactive: 0.031
- log2 fold change [6]: inactive: -0.058
- log2 fold change (gefitinib): inactive: 0
- log2 fold change (lapatinib): inactive: -0.043
- log2 fold change (pictilisib): inactive: 0
- log2 fold change (crizotinib): inactive: 0.001
- log2 fold change [4]: inactive: -0.042
- log2 fold change (duvelisib): inactive: 0.026
- log2 fold change (gandotinib): inactive: 0.059
- log2 fold change (tozasertib): inactive: -0.011
- log2 fold change (doramapimod): inactive: 0.039
- log2 fold change (bafetinib): inactive: -0.111
- log2 fold change [5]: inactive: 0.042

Target: CORO1A (UniProt P31146)
- log2 fold change (alvocidib): inactive: 0
- log2 fold change (Tubastatin A): inactive: -0.02
- log2 fold change [1]: inactive: 0.013
- log2 fold change (defactinib): inactive: -0.034
- log2 fold change [2]: inactive: 0.037
- log2 fold change (encorafenib): inactive: -0.051
- log2 fold change [3]: inactive: 0.144
- log2 fold change (alisertib): inactive: -0.018
- log2 fold change [6]: inactive: -0.021
- log2 fold change (gefitinib): inactive: -0.037
- log2 fold change (lapatinib): inactive: -0.018
- log2 fold change (pictilisib): inactive: -0.058
- log2 fold change (crizotinib): inactive: -0.008
- log2 fold change [4]: inactive: -0.069
- log2 fold change (duvelisib): inactive: 0.038
- log2 fold change (gandotinib): inactive: 0.037
- log2 fold change (tozasertib): inactive: 0.089
- log2 fold change (doramapimod): inactive: 0.009
- log2 fold change (bafetinib): inactive: -0.028
- log2 fold change [5]: inactive: -0.001

Target: COX20 isoform 2 (UniProt Q5RI15)
- log2 fold change (alvocidib): inactive: 0.102
- log2 fold change (Tubastatin A): inactive: -0.012
- log2 fold change [1]: inactive: 0.01
- log2 fold change (defactinib): inactive: -0.007
- log2 fold change [2]: inactive: 0.06
- log2 fold change (encorafenib): inactive: -0.103
- log2 fold change [3]: inactive: 0.022
- log2 fold change (alisertib): inactive: 0.001
- log2 fold change [6]: inactive: -0.033
- log2 fold change (gefitinib): inactive: -0.009
- log2 fold change (lapatinib): inactive: 0.016
- log2 fold change (pictilisib): inactive: 0.186
- log2 fold change (crizotinib): inactive: 0.054
- log2 fold change [4]: active: 0.455
- log2 fold change (duvelisib): inactive: -0.007
- log2 fold change (gandotinib): inactive: -0.144
- log2 fold change (tozasertib): inactive: -0.053
- log2 fold change (doramapimod): inactive: -0.036
- log2 fold change (bafetinib): inactive: 0.144
- log2 fold change [5]: inactive: -0.273

Target: COX7A2 (UniProt P14406)
- log2 fold change (alvocidib): inactive: 0.045
- log2 fold change (Tubastatin A): inactive: 0.059
- log2 fold change [1]: inactive: 0.008
- log2 fold change (defactinib): inactive: 0.058
- log2 fold change (encorafenib): inactive: -0.02
- log2 fold change [3]: inactive: 0.026
- log2 fold change (alisertib): inactive: 0.052
- log2 fold change [6]: inactive: 0.003
- log2 fold change (gefitinib): inactive: -0.076
- log2 fold change (lapatinib): inactive: -0.019
- log2 fold change (pictilisib): inactive: -0.053
- log2 fold change (crizotinib): inactive: -0.048
- log2 fold change [4]: inactive: 0.041
- log2 fold change (gandotinib): inactive: 0.036
- log2 fold change (tozasertib): inactive: 0.063
- log2 fold change (doramapimod): inactive: 0.047
- log2 fold change (bafetinib): inactive: -0.043
- log2 fold change [5]: inactive: -0.014
